Library screening results

Source: ChEMBL document CHEMBL3988442, “University of Dundee, Small-Polar-MMV Screening Library” (2021).

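Whole-cell assay for inhibitors of Mycobacterium tuberculosis growth, labelled Cornell in the record; the read-out is not stated. The concentration is filed as 10 mM, unlikely as a test dose, so the dose is not known. The record gives no direction; compounds strong in two other growth screens of this library score well above the rest, so higher reads as stronger inhibition. Size under these conditions: about 53,000 compounds, about 900 of them at 50% or above in at least one test.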

The filed quantity is “Percent Effect” (%).
The record does not define 0% and 100%; most values in the screen are far below 50% and negative numbers occur (in some assays of this library far below -100).
The compounds are a random part of those screened.

| SMILES | effect |
|---|---|
| `O=C(O)C(F)(F)F.O=C(O)C(F)(F)F.[H][C@@]12C[C@H](C(=O)N(C)C)CN(Cc3ccc4ccccc4n3)[C@]1([H])CCO2` | -16.76 |
| `CN(Cc1cccnc1)CC1CCOc2ccccc2C1` (stereo unspecified) | 7.804 |
| `CSC1(CNC(=O)c2cccc(-n3cccn3)c2)CCOCC1` | 14.95 |
| `CC(=O)N1CCc2c(nc(N(C)C)nc2NCCC2CCCCO2)C1` (stereo unspecified) | 2.485 |
| `COC(C)(C)CNC(=O)N(C)Cc1nc(-c2ccccc2)c[nH]1` | -15.06 |
| `O=C(COc1coc(CN2CCCC2)cc1=O)Nc1cc(Cl)ccc1Cl` | 24.06 |
| `Fc1ccc(CN2Cc3nccn3CC(CN3CCOCC3)C2)cc1.O=C(O)C(F)(F)F.O=C(O)C(F)(F)F` (stereo unspecified) | -4.296 |
| `NC(=O)CCSc1ccccc1NCc1ccc(Cl)s1` | 23.21 |
| `O=C(O)C(F)(F)F.O=S(=O)(C1CC1)N1CCC2(CN(c3ccccn3)C2)C1` | 35.42 |
| `NS(=O)(=O)c1ccc(NCc2ccccc2F)cc1C(F)(F)F` | 23.22 |
| `CC(C)CCC(=O)N1CCCC2(CCN(Cc3ccccc3C#N)C2)C1` (stereo unspecified) | 30.44 |
| `CCS(=O)(=O)NCC(=O)NC(c1cc(C)sc1C)C(C)C` (stereo unspecified) | 24.3 |
| `CNS(=O)(=O)C1CCN(c2cc(C(C)C)nc(C(C)C)n2)C1` (stereo unspecified) | 29.01 |
| `Cc1nn(C)c(C)c1NC(=O)CN1CCN(c2nccs2)C(C)C1` (stereo unspecified) | 12.59 |
| `CC(=O)N1CCN(c2cc(C3CN(C(C)=O)CCO3)nc(C)n2)CC1` (stereo unspecified) | -26.42 |
| `CCOCCN1CCN(Cc2cccc(C(=O)N(C)C)c2)CC1` | 1.032 |
| `COc1ccc(CN(Cc2ccsc2)CC2CCCO2)cn1` (stereo unspecified) | 3.952 |
| `CSc1nsc(NC(=O)c2cc(C3CC3)nn2C)n1` | 2.058 |
| `[H][C@@]12CN(Cc3ccc(C#N)cc3)C[C@]1([H])OCC(=O)N2CC(N)=O` | 2.685 |
| `CCc1nc(C)c(C2CC(=O)Nc3c2c(C(C)(C)C)nn3C)[nH]1` (stereo unspecified) | -36.2 |
| `CC(Cc1ccco1)NC(=O)NCc1ncnn1C` (stereo unspecified) | -62.59 |
| `COc1ccc(CNC(=O)NCc2nc(C)c(C)s2)cn1` | -0.9411 |
| `CCc1nnc(CS(=O)(=O)c2ccc(C)c(C)c2)n1C` | -14.67 |
| `CCCc1nnsc1C(=O)NCC1CCN(c2ccccn2)CC1` | 18.46 |
| `Cc1n[nH]c(C2CN(C(=O)CCc3ccco3)CCO2)n1` (stereo unspecified) | -0.4442 |
| `O=C1CCN(C(=O)NCc2cccc(Oc3ccccc3)c2)CCN1` | 1.242 |
| `CCc1nnc(Nc2cccc(C3CCN(c4cnccn4)CC3)n2)s1` | -66.39 |
| `CCCn1cc(C(=O)N(C)Cc2nc(-c3ccccn3)no2)c(C)n1` | 3.717 |
| `[H][C@@]12CCN(C(=O)CCOC)C[C@]1([H])OCCN(c1ccsc1)C2=O` | -38 |
| `CC(C)OCCCNS(=O)(=O)c1ccc2c(c1)NC(=O)C(C)O2` (stereo unspecified) | 2.002 |
| `Cc1cc(C)n(C2CCN(c3ncnc4c3CCNCC4)C2)n1` (stereo unspecified) | 16.28 |
| `CCc1nnc(CNC(=O)c2cc3c(nc2OC)CCC3)s1` | -1.985 |
| `CC(=O)N(C)CC(=O)NC1(c2ccc(F)cc2)CCCC1` | 29.54 |
| `[H][C@@]12CC(=O)/C(=C(/C)NC(=O)c3ccco3)[C@]1([H])C2(C)C` | 1.885 |
| `O=C(Nc1nccs1)NC1CCN(Cc2ccccc2)C1` (stereo unspecified) | -2.804 |
| `NS(=O)(=O)NCc1cc(-c2ccco2)n(CC(F)(F)F)n1` | 5.494 |
| `O=C(O)C(F)(F)F.[H][C@]12C[C@@H](Cn3cncn3)N(CC3CC3)[C@@]1([H])CCN(S(C)(=O)=O)C2` | -51.81 |
| `CN1C(=O)C2(CCCN(C(=O)c3cccnc3O)C2)c2ccccc21` (stereo unspecified) | -0.9614 |
| `COc1ccc(-c2nc(C)cc(SCC(N)=O)n2)cc1` | 26.63 |
| `O=C(O)C(F)(F)F.O=C(O)C(F)(F)F.[H][C@@]12CN(Cc3nccs3)C[C@@]1([H])N(Cc1ccncc1)C(=O)CO2` | 16.7 |
| `O=C(O)C(F)(F)F.[H][C@@]12COC[C@@H](C(=O)N3CCC(F)CC3)[C@]1([H])CN(C1CCCC1)C2` | -4.575 |
| `CN1CCC(CN2CCC3(CCCN(Cc4ccoc4)C3)C2=O)CC1.O=C(O)C(F)(F)F.O=C(O)C(F)(F)F` (stereo unspecified) | -2.656 |
| `COc1cc(NC2CCCN(c3ncccn3)C2)cc(OC)c1` (stereo unspecified) | 22.02 |
| `COc1cccc(NC(=O)Cc2c(C)nc3c(c2C)c(=O)[nH]n3C)c1` | -7.789 |
| `COCC(=O)N1CCN(C(=O)C2CCCCC2)[C@@H](C(=O)OC)C1` | -14.41 |
| `CCn1cnnc1CNC(=O)NCC(C(C)C)N1CCC(C)CC1` (stereo unspecified) | 2.299 |
| `O=C(O)C(F)(F)F.O=C(O)C(F)(F)F.[H][C@@]12CN(Cc3ccsc3)C[C@@]1([H])N(Cc1ccncc1)C(=O)CO2` | 20.5 |
| `Cc1ccc(CN2CCn3cc(CNC(=O)c4cnn(C)c4)nc3C2)s1.O=C(O)C(F)(F)F` | 8.89 |
| `O=C(NCCN1CCC(c2cccs2)CC1)Nc1cccs1` | 107.5 |
| `CCOc1nc2cnccc2n(CC(=O)NCc2ccc(C)cc2)c1=O` | 11.57 |
| `Clc1cccc(CNc2cnn(CCN3CCCCC3)c2)c1` | -1.377 |
| `CC(C)c1nc(/C=C/c2ccc(O)c(Cl)c2)ncc1C(=O)O` | 8.532 |
| `Cc1nc(CNC(=O)N(Cc2ccccc2)CC(C)(C)O)oc1C` | 9.492 |
| `Cc1n[nH]c2c1C(c1ccc(Br)cc1)SCC(=O)N2` (stereo unspecified) | -11.43 |
| `CCn1cc(N)c(C(=O)NCc2cnn(C)c2)n1` | 15.31 |
| `CC1c2ncc(CNC(=O)C3CC3)n2CCN1CC1CCC1.O=C(O)C(F)(F)F` (stereo unspecified) | 4.956 |
| `CC(=O)N1CCOC2(CCN(C(=O)C3CC3)CC2)C1` | -1.573 |
| `Cc1ccc(C(=O)Nc2cnn(CC(=O)NC3CCCC3)c2)c(=O)[nH]1` | -1.036 |
| `FC(F)(F)c1cc(C2CCCN(c3ncccn3)C2)n2ccnc2n1` (stereo unspecified) | 58.69 |
| `Cc1nc(CN2CCCC(CCc3ccc(F)cc3F)C2)c[nH]1` (stereo unspecified) | -2.22 |
| `O=C(CCNc1ncccn1)NCCOc1ccc2c(c1)CCC2` | 26.01 |
| `CN1CCc2c(CNC(=O)c3nccn3C)cncc2C1.Cl.Cl.Cl` | -15.35 |
| `CC1c2ccsc2CCN1Cc1cc2c(cc1O)OCO2` (stereo unspecified) | 30.55 |
| `COCCc1noc(CN2CCC3(CCCO3)CCC2=O)n1` (stereo unspecified) | -3.943 |
| `O=C(Nc1cccc(OCc2ccc(F)cc2)c1)C1COCCO1` (stereo unspecified) | 107.1 |
| `Cc1nc(N2CCCOC(Cn3cccn3)C2)c2sccc2n1` (stereo unspecified) | 26.84 |
| `CN(CCc1ccccn1)S(=O)(=O)N1CCCC1c1ccco1` (stereo unspecified) | 22.69 |
| `CCc1ncc(C(=O)N2CCCN(C3CCCC3)CC2)cn1` | -13.3 |
| `Cc1ccc2cc(CNCCCO)c(=O)[nH]c2c1` | 9.923 |
| `CS(=O)(=O)CCOCCNc1cncc(Br)c1` | -0.6964 |
| `Cc1cc(S(C)(=O)=O)c(C)c(S(=O)(=O)NCC2CCC2)c1` | -4.669 |
| `Cc1nc(CN2C(=O)COC3(CCN(Cc4nccs4)CC3)C2C)cs1.O=C(O)C(F)(F)F` (stereo unspecified) | 23.51 |
| `COc1ccc(CN(C)C2CCN(S(C)(=O)=O)CC2)c2cccnc12` | -5.179 |
| `Cc1cncc(C(=O)N2CCCC3(CCCN3S(C)(=O)=O)C2)c1` (stereo unspecified) | -7.698 |
| `O=C(CCN1CCCC(CC2CC2)(C(=O)O)C1)NC1CCCC1` (stereo unspecified) | -28.4 |
| `CNc1cc(CNC(=O)c2ccccn2)nc(-c2ccncc2)n1` | -9.032 |
| `NC(=O)C1=NC2=NS(=O)(=O)c3ccccc3N2N1Cc1ccc(Br)cc1` | 106.5 |
| `O[C@H]1CN(Cc2cccc(C(F)(F)F)c2)CC[C@@]12CCCO2` | -36.22 |
| `Cc1cccc2nc(CN3CCCC(Cn4ccnn4)C3)cc(=O)n12` (stereo unspecified) | -29.82 |
| `Cc1nnc(CN2CCOC(c3ccc(Cl)cc3)C2)o1` (stereo unspecified) | 2.612 |
| `CCc1cnc(NC(=O)NC2CCN(C3CCCC3)CC2)s1` | -3.242 |
| `CC(C)(C)C(O)CN1CCN(Cc2nccn2CC(F)(F)F)CC1` (stereo unspecified) | 11.34 |
| `[H][C@@]12COC[C@]1(COCc1cccnc1)CN(C(=O)c1ccc(C)nc1)C2` | 25.16 |

The last 4 entries again:

For Cc1nnc(CN2CCOC(c3ccc(Cl)cc3)C2)o1 (stereo unspecified) the result was 2.612%.
For CCc1cnc(NC(=O)NC2CCN(C3CCCC3)CC2)s1 the result was -3.242%.
For CC(C)(C)C(O)CN1CCN(Cc2nccn2CC(F)(F)F)CC1 (stereo unspecified) the result was 11.34%.
For [H][C@@]12COC[C@]1(COCc1cccnc1)CN(C(=O)c1ccc(C)nc1)C2 the result was 25.16%.